These are yes or no findings as the source states them, for the method shown. Binding seen in cells or lysates may run through a third protein. Some binding calls cover weakened binding; strength is not graded here. For some assays here: Tags and fused reporters may be left off the sequences shown.

Protein sequences, listed by entry. Tags and fused reporters are not part of them. Residues count along the entry.
UniProt O00463: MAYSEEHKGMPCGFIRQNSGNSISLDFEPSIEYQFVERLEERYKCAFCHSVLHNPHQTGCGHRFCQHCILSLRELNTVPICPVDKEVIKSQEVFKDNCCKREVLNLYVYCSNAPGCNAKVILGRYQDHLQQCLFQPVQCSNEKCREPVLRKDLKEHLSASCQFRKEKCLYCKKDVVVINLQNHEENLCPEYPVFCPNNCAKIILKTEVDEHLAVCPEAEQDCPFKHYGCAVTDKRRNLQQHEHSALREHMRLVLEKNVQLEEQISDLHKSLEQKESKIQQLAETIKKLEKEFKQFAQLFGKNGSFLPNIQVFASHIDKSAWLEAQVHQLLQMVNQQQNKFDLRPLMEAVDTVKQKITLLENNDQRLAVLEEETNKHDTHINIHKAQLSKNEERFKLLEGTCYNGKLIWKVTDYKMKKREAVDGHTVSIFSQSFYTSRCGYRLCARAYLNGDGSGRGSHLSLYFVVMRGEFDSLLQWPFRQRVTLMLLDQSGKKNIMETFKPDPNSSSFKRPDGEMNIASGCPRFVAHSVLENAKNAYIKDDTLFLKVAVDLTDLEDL
UniProt Q7Z434, residues 142-540: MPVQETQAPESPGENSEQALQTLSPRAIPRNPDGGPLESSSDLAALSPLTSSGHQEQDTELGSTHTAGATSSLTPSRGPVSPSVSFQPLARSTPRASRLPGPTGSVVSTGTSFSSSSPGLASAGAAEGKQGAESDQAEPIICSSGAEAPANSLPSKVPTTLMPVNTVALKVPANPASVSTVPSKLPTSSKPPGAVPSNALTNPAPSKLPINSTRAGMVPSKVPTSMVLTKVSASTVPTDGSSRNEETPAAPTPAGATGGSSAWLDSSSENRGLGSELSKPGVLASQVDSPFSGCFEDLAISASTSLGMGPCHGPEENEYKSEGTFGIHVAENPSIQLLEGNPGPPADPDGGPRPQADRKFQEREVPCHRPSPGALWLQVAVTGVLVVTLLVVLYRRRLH

Experimental findings from paper PMC4519330 are described below.

One test concerns the target Flag-tagged TRAF5 (UniProt O00463). The test can be described thus: co-IP; 293T cells co-transfected; lysates in NP40 buffer (50 mM Tris-HCl pH 7.4, 150 mM NaCl, 5 mM EDTA, 1% NP40) precipitated with anti-Flag agarose at 4°C for 4-6 hours; immunoblot. On the technique in general: In western blotting, separated proteins are transferred to a membrane and probed.
A further test concerns the target T1, Flag-TRAF2 (UniProt Q12933).
T1 sequence: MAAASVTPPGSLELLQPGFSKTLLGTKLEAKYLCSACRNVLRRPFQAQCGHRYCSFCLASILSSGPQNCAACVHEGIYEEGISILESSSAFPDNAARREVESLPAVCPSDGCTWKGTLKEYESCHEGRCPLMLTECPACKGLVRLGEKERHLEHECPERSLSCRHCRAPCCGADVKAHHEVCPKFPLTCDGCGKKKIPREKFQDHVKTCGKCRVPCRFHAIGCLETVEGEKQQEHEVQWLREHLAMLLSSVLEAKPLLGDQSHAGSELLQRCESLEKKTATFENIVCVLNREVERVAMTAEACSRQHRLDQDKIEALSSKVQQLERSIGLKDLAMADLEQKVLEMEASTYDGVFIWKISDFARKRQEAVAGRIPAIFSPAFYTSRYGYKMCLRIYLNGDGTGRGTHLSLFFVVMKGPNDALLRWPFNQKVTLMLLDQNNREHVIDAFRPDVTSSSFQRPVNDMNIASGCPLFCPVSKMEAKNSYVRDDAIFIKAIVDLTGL
The description is as above.

“V5-tagged MAVS50 (from UniProt Q7Z434 142-540)”: the binding entry in the test with Flag-tagged TRAF5 and with Flag-TRAF2 was “binds” in each case.
